{"source": "PubChem BioAssay AID1259424 (University of Nebraska Medical Center, 2018)", "assay": "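Find knockdowns that reproduce the expression shifts seen after KSR1 loss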 (primary screen)", "cells": "human HCT116 colon cancer cells", "reagents": "siRNA pool against human genes, 50 nM", "measurement": "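Six signature mRNAs by branched-DNA multiplex assay, scaled to two housekeeping genes and non-targeting median, log2; matched to mean KSR1 knockdown profile by Pearson correlation and euclidean distance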", "scale": "mean correlation with KSR1 profile: higher = expression change more like KSR1 knockdown", "note": "Here is one part, drawn at random, of about 14,000 reagents. 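Higher correlation or smaller distance means closer resemblance to KSR1 loss; control wells, including KSR1 knockdowns, recur on many plates.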 The numbers tell different reagents against one gene apart. Further read-outs or replicates are left out here. Reagent sequences are not shown. The record does not give: the time to read-out."}
{"Gene":"SGIP1","reagent":1,"mean correlation with KSR1 profile":0.666}
{"Gene":"SKIC3","reagent":1,"mean correlation with KSR1 profile":-0.197}
{"Gene":"HBZ","reagent":1,"mean correlation with KSR1 profile":0.807}
{"Gene":"COG8","reagent":1,"mean correlation with KSR1 profile":0.808}
{"Gene":"TTC9","reagent":1,"mean correlation with KSR1 profile":-0.792}
{"Gene":"ACTRT3","reagent":1,"mean correlation with KSR1 profile":0.83}
{"Gene":"LRRC8D","reagent":1,"mean correlation with KSR1 profile":0.643}
{"Gene":"PTK2","reagent":1,"mean correlation with KSR1 profile":0.616}
{"Gene":"DNTTIP1","reagent":1,"mean correlation with KSR1 profile":0.0688}
{"Gene":"MFAP5","reagent":1,"mean correlation with KSR1 profile":-0.23}
{"Gene":"LSM6","reagent":1,"mean correlation with KSR1 profile":-0.403}
{"Gene":"BCAR3","reagent":1,"mean correlation with KSR1 profile":0.423}
{"Gene":"NUFIP1","reagent":1,"mean correlation with KSR1 profile":0.00574}
{"Gene":"AJUBA","reagent":1,"mean correlation with KSR1 profile":-0.0375}
{"Gene":"TAF9","reagent":1,"mean correlation with KSR1 profile":-0.0272}
{"Gene":"ADPGK","reagent":1,"mean correlation with KSR1 profile":-0.481}
{"Gene":"NDUFS1","reagent":1,"mean correlation with KSR1 profile":0.205}
{"Gene":"MED22","reagent":1,"mean correlation with KSR1 profile":0.0837}
{"Gene":"EPN1","reagent":1,"mean correlation with KSR1 profile":0.299}
{"Gene":"C1orf21","reagent":1,"mean correlation with KSR1 profile":0.115}
{"Gene":"RETREG2","reagent":1,"mean correlation with KSR1 profile":-0.0584}
{"Gene":"POLR2M","reagent":1,"mean correlation with KSR1 profile":0.0581}
{"Gene":"MME","reagent":1,"mean correlation with KSR1 profile":-0.381}
{"Gene":"IL17RC","reagent":1,"mean correlation with KSR1 profile":0.619}
{"Gene":"YWHAQ","reagent":1,"mean correlation with KSR1 profile":-0.0814}
{"Gene":"KRT8","reagent":1,"mean correlation with KSR1 profile":-0.469}
{"Gene":"ALG13","reagent":1,"mean correlation with KSR1 profile":0.351}
{"Gene":"ALG13","reagent":2,"mean correlation with KSR1 profile":0.649}
{"Gene":"STAR","reagent":1,"mean correlation with KSR1 profile":-0.591}
{"Gene":"NR2C2AP","reagent":1,"mean correlation with KSR1 profile":-0.361}
{"Gene":"NAA80","reagent":1,"mean correlation with KSR1 profile":-0.706}
{"Gene":"H2BC5","reagent":1,"mean correlation with KSR1 profile":-0.17}
{"Gene":"LYPD3","reagent":1,"mean correlation with KSR1 profile":0.0865}
{"Gene":"LRRC32","reagent":1,"mean correlation with KSR1 profile":-0.439}
{"Gene":"ETAA1","reagent":1,"mean correlation with KSR1 profile":-0.175}
{"Gene":"C11orf71","reagent":1,"mean correlation with KSR1 profile":-0.0345}

Laid out differently: 5 of the entries above
TTC9
- mean correlation with KSR1 profile: -0.792

ACTRT3
- mean correlation with KSR1 profile: 0.83

LRRC8D
- mean correlation with KSR1 profile: 0.643

PTK2
- mean correlation with KSR1 profile: 0.616

DNTTIP1
- mean correlation with KSR1 profile: 0.0688
